Values quoted from earlier work, collected in patent publication US10869903B2, “Probiotic and prebiotic compositions, and methods of use thereof for treatment and prevention of graft versus host disease” (Evelo Biosciences, Inc., priority 2014, dated 2020).
For at least one compound, name, drawing or mass did not settle the structure.

Tested on: Tregs in the large intestine
Conditions: mouse, in vivo; cited from earlier work

Q: With `CCCC(=O)O` [butyrate] as the molecule, how does the “numbers of Tregs in the large intestine” value read?
A: restored normal numbers of Tregs
